Experimental data taken from PMC4027176, “Modulating TRAP-mediated transcription termination by AT during transcription of the leader region of the Bacillus subtilis trp operon” (Nucleic Acids Research, 2014).
These are yes or no findings as the source states them, for the method shown. Some entries that bind do so weakly or less than the wild type. For part of these data: Tags and fused reporters may be left off the sequences shown.

How the values were obtained:
[1] = target: T1, His-tagged N20C (Asn20 replaced with Cys) TRAP (B. subtilis) (UniProt P19466); assay: cross-linking; BMOE (0.04 mM, 8 Å sulfhydryl cross-linker); N20C TRAP 0.02 mM and/or D7C AT 0.08 mM; 1 mM tryptophan; PBS pH 7.2, 0.5 mM EDTA; 37°C 1 h; 15% SDS gel, Coomassie; both purified
T1 sequence: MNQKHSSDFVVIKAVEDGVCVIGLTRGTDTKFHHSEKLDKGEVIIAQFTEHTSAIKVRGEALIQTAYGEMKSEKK

[2] = target: T1, His-tagged N20C (Asn20 replaced with Cys) TRAP (B. subtilis); assay: co-IP; samples of N20C TRAP and/or D7C AT with or without BMOE precipitated with antibodies against B. subtilis TRAP; SDS PAGE and immunoblot with polyclonal antibodies against B. subtilis AT; both purified
[3] = target: T2, (N20C)1(WT)10 TRAP hetero-11mer (B. subtilis) (UniProt P19466); assay: cross-linking; (N20C)1(WT)10 TRAP hetero-11mer with 5-fold excess D7C AT, BMOE in cross-linking buffer; complex purified on successive immunoaffinity columns against B. subtilis TRAP and B. subtilis AT; both purified
T2 sequence 1: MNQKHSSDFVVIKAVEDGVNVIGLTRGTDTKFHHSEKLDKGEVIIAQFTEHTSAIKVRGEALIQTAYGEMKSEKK
T2 sequence 2: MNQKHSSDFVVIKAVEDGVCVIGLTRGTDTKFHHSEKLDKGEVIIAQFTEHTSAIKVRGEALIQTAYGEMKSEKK

binding [1]: binds
binding [2]: binds
binding [3]: binds
B1: AT containing a Cys substitution at residue 7 (D7C AT) (natural protein, B. subtilis, UniProt O31466 1-53, looked up)
chain: MVIATDCLEVACPKCERAGEIEGTPCPACSGKGVILTAQGYTLLDFIQKHLNK
notes: Anti-TRAP (AT) of Bacillus subtilis with Asp7 replaced by Cys; source: purified as described by Chen and Gollnick (19)
